# Measured values as given in the supplement of paper PMC6411743.
# Amino acid sequences for entries named in this document (tags omitted). A change or cut given only in a name is not applied to a line headed by its entry.
# UniProt Q8WW01: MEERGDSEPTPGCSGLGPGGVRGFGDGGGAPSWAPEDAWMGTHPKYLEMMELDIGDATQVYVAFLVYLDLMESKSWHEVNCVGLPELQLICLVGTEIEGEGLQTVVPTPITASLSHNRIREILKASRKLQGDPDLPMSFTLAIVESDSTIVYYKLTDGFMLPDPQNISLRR
# UniProt Q96G03: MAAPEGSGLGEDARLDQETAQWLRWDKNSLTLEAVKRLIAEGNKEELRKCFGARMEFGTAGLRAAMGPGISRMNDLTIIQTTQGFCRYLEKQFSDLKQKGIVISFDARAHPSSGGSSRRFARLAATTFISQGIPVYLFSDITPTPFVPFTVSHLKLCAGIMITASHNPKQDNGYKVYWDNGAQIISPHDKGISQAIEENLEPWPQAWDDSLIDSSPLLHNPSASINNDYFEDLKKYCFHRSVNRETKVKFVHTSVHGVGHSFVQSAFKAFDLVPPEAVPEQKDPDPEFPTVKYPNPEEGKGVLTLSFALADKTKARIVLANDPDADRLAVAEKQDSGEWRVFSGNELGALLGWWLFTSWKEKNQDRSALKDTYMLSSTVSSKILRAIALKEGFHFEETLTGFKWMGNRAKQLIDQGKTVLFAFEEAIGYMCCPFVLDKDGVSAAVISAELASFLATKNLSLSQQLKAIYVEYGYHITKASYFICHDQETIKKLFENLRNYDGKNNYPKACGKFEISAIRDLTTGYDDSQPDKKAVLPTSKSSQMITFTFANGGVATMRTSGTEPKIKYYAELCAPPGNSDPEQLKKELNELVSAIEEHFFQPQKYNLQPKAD
# UniProt Q96D53: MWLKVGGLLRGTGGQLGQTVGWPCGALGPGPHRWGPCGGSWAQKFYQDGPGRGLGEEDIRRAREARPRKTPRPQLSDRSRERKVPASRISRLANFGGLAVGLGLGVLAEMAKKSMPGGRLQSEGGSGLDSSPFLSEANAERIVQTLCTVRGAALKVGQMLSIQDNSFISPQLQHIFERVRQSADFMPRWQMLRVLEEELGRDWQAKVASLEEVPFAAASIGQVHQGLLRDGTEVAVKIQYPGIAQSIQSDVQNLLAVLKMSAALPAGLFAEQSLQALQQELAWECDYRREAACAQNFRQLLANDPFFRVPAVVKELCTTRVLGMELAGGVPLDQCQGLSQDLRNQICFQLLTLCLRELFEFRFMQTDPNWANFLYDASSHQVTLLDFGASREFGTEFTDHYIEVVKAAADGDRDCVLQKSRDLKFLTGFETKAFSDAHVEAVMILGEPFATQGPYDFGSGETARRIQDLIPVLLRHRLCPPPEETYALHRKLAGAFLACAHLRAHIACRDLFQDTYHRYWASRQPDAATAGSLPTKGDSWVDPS
# UniProt Q92878: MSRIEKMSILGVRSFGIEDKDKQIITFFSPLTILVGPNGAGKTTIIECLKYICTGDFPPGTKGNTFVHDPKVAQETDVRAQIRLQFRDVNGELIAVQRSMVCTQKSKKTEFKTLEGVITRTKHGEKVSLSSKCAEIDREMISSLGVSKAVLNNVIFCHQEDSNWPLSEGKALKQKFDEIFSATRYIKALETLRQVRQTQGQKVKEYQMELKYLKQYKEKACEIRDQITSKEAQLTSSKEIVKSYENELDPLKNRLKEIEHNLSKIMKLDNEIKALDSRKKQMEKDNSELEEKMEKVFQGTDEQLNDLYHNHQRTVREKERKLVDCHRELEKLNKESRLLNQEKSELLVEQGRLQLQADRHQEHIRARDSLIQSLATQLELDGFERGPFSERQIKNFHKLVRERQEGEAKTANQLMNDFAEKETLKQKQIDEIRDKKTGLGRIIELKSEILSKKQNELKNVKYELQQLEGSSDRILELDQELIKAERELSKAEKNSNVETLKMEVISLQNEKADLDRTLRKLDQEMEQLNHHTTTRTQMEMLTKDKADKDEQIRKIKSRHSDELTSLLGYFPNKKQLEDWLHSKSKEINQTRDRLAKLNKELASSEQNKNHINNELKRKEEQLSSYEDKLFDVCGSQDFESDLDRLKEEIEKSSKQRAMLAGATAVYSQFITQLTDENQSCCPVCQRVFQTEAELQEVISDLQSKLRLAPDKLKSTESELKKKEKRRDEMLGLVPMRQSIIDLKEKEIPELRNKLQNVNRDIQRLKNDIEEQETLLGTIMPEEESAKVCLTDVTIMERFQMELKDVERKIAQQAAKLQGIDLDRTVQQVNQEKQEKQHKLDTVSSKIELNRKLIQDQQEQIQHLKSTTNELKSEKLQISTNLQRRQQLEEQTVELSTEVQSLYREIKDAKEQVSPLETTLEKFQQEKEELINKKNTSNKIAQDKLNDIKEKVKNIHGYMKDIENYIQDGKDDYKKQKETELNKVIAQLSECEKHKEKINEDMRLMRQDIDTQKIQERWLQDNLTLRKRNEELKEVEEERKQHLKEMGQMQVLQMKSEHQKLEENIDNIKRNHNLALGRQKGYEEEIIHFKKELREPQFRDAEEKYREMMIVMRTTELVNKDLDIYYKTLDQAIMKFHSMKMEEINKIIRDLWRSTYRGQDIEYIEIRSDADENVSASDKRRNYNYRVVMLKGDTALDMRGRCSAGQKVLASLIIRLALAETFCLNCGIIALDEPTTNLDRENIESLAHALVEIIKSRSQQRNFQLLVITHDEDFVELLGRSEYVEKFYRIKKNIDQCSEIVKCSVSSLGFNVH
# UniProt Q93074, whole entry: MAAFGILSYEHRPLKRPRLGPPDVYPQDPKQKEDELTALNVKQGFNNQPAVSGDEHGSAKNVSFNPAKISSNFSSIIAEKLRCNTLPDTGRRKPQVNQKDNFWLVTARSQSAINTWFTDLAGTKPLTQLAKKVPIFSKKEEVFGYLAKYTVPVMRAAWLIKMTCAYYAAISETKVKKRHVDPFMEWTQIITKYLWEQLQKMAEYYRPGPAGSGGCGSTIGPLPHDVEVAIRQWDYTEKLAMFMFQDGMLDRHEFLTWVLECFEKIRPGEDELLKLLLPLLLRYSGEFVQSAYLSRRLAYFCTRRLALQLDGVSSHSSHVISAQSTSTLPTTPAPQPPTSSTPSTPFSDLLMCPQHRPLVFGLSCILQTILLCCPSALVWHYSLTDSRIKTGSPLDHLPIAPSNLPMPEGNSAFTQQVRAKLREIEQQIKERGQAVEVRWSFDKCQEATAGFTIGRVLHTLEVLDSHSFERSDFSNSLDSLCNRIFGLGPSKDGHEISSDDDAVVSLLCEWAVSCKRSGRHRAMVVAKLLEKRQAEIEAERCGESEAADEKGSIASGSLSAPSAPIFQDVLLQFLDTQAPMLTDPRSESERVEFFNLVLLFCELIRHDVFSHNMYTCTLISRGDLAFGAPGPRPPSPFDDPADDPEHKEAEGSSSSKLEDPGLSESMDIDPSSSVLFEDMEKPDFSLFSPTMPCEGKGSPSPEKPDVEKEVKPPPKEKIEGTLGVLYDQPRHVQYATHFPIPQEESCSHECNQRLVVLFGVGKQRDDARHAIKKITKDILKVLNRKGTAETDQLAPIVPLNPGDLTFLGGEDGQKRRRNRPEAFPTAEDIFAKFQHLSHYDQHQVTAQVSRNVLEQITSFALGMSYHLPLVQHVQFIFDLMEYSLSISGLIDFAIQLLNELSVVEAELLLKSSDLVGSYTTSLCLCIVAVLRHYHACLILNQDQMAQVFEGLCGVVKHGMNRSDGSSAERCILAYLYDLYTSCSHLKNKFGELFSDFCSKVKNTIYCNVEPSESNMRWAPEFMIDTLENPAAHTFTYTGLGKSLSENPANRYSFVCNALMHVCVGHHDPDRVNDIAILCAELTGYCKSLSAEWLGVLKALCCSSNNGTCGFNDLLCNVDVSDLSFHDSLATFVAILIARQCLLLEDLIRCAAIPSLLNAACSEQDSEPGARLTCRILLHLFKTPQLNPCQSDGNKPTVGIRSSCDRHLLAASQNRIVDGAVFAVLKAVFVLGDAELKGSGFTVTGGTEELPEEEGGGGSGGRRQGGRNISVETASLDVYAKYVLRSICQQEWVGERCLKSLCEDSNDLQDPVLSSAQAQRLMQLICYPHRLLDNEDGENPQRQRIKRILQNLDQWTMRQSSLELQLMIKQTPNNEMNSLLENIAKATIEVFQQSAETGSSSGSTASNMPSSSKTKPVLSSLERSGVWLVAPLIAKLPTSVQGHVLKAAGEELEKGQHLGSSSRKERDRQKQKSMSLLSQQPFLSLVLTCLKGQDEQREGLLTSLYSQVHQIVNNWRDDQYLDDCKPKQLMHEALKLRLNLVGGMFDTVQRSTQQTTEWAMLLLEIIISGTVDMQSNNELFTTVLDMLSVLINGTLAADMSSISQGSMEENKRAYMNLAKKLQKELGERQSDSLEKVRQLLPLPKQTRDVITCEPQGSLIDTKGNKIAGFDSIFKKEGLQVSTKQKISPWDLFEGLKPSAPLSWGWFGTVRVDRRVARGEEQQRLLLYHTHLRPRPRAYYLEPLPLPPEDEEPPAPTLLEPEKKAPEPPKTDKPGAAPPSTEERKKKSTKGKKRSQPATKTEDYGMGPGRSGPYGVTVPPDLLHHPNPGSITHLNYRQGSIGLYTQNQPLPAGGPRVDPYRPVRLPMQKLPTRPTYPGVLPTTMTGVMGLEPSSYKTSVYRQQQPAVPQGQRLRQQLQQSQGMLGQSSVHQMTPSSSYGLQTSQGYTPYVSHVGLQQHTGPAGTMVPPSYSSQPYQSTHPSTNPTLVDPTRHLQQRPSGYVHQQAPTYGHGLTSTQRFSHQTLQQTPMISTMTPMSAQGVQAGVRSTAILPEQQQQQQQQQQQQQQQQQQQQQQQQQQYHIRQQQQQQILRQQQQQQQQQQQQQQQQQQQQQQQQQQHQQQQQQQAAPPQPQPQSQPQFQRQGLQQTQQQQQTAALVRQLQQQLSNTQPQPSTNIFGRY
# UniProt Q96DA2: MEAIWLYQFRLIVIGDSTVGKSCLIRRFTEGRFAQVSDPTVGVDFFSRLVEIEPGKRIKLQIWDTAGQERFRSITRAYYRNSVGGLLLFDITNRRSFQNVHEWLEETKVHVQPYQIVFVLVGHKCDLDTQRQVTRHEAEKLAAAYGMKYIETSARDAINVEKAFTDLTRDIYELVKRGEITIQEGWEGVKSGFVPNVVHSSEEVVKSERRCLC
# UniProt Q96A47: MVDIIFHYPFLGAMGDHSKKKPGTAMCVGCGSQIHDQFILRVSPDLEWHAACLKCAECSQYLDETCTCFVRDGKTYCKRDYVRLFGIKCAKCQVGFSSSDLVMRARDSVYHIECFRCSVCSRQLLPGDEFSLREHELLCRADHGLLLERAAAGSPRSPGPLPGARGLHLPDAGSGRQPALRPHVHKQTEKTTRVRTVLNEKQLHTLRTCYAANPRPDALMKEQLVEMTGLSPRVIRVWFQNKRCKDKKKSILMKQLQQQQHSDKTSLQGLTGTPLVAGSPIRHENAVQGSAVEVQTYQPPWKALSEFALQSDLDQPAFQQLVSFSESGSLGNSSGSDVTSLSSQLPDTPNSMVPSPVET
# UniProt Q96H79: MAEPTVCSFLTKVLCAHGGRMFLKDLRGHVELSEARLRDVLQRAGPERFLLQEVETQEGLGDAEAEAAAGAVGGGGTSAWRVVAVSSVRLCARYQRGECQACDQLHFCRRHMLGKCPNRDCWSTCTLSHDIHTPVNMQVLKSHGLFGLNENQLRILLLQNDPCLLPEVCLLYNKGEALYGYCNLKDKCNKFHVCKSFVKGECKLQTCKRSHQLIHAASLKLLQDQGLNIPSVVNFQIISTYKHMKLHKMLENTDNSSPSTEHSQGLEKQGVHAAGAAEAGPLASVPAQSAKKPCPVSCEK
# UniProt Q96CW5, whole entry: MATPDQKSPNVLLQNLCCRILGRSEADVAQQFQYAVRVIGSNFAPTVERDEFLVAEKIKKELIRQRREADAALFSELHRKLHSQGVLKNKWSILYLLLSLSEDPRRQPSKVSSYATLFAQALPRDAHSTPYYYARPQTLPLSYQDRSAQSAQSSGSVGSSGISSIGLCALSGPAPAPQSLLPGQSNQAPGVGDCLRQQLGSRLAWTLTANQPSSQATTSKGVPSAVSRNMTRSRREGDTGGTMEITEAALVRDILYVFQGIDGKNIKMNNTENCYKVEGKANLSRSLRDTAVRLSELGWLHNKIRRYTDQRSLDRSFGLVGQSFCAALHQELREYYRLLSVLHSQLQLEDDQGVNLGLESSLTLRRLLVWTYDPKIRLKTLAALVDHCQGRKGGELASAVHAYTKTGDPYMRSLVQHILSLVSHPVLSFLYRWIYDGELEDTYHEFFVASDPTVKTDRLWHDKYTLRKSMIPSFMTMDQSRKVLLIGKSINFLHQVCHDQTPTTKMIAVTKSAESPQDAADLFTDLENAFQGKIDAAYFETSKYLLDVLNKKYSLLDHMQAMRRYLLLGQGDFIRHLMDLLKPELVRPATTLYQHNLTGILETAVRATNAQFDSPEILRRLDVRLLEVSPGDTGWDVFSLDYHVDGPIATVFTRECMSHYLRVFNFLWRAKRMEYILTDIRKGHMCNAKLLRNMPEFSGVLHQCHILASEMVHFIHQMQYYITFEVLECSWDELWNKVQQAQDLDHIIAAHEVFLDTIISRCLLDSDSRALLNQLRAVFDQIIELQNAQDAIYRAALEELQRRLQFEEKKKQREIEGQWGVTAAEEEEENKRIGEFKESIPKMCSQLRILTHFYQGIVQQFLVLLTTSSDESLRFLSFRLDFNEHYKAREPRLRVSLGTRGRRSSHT
# ± gives the standard deviation of the averaged measurements. The list shows a part of the results.
# Compound: Nc1nc2c(ncn2[C@@H]2O[C@H](COP(=O)(O)OP(=O)(O)OP(=O)(O)O)[C@@H](O)[C@H]2O)c(=O)[nH]1 [guanosine triphosphate]
# Experiment: NP40-soluble protein abundance relative to vehicle (solubility fold change) (ratio); higher = more soluble protein in presence of GTP
# Outline: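 Each value is a fold change relative to the detergent-processed vehicle, calculated per replicate from vsn-normalised intensities. Jurkat crude lysate received eight concentrations (0.1 to 10 mM) for 10 min at room temperature and 3 min at 37 °C, then was solubilised in 0.8% NP40 with benzonase (60 min, 4 °C). The ultracentrifuged supernatant was TMT-labelled and run by LC-MS/MS in three independent experiments.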
Target,NP40-soluble protein abundance (concentration: 0.1mM),NP40-soluble protein abundance (concentration: 0.5mM),NP40-soluble protein abundance (concentration: 1mM),NP40-soluble protein abundance (concentration: 2mM),NP40-soluble protein abundance (concentration: 4mM),NP40-soluble protein abundance (concentration: 6mM),NP40-soluble protein abundance (concentration: 8mM),NP40-soluble protein abundance (concentration: 10mM)
UniProt Q96FJ0 and related entries,0.973 ± 0.075,0.991 ± 0.094,0.974 ± 0.1,0.998 ± 0.1,0.993 ± 0.099,0.999 ± 0.068,1.05 ± 0.12,1.03 ± 0.14
UniProt Q92759 and related entries,1.06 ± 0.11,1.02 ± 0.17,0.993 ± 0.068,1.04 ± 0.29,1.07 ± 0.1,1.04 ± 0.1,1.05 ± 0.18,1.06 ± 0.14
TSEN15 (UniProt Q8WW01),0.978 ± 0.12,0.914 ± 0.019,0.939 ± 0.065,0.989 ± 0.078,0.969 ± 0.052,0.905 ± 0.067,0.93 ± 0.086,0.916 ± 0.068
USP13 (UniProt Q92995),1 ± 0.037,0.995 ± 0.03,0.95 ± 0.034,0.947 ± 0.034,0.931 ± 0.055,0.925 ± 0.033,0.911 ± 0.05,0.886 ± 0.059
CORO2A (UniProt Q92828),1.08 ± 0.12,1.09 ± 0.11,1.11 ± 0.049,1.19 ± 0.047,1.31 ± 0.056,1.42 ± 0.075,1.42 ± 0.1,1.42 ± 0.058
PGM2 (UniProt Q96G03),0.997 ± 0.017,1 ± 0.029,0.915 ± 0.025,0.913 ± 0.041,0.893 ± 0.055,0.877 ± 0.027,0.868 ± 0.043,0.86 ± 0.074
UniProt Q96D53 and related entries,0.865 ± 0.041,1.02 ± 0.03,0.983 ± 0.051,0.982 ± 0.022,0.965 ± 0.14,1.02 ± 0.14,0.854 ± 0.052,0.871 ± 0.019
UniProt Q92878 and related entries,1.05 ± 0.023,1.07 ± 0.064,1.05 ± 0.043,1.03 ± 0.059,1.03 ± 0.047,1.04 ± 0.052,1.06 ± 0.1,1.01 ± 0.072
UniProt Q92574 and related entries,1.03 ± 0.097,1.04 ± 0.038,1.07 ± 0.041,1.07 ± 0.072,1.09 ± 0.07,1.08 ± 0.062,1.12 ± 0.14,1.08 ± 0.1
UniProt Q93074 and related entries,1.15 ± 0.053,1.11 ± 0.068,1.18 ± 0.098,1.26 ± 0.12,1.35 ± 0.22,1.33 ± 0.21,1.35 ± 0.23,1.33 ± 0.21
NUDCD2 (UniProt Q8WVJ2),0.901 ± 0.067,0.894 ± 0.088,0.907 ± 0.082,0.876 ± 0.11,0.846 ± 0.12,0.868 ± 0.13,0.849 ± 0.11,0.891 ± 0.11
RAB39B (UniProt Q96DA2),1.19 ± 0.072,1.13 ± 0.12,0.932 ± 0.06,1.02 ± 0.12,0.963 ± 0.15,0.926 ± 0.093,0.835 ± 0.065,0.821 ± 0.13
ISL2 (UniProt Q96A47),1.09 ± 0.037,1.1 ± 0.045,1.17 ± 0.023,1.1 ± 0.063,1.08 ± 0.086,1.06 ± 0.13,1.03 ± 0.017,1.13 ± 0.015
UniProt Q92538 and related entries,1.04 ± 0.024,1.06 ± 0.013,1.02 ± 0.027,1.04 ± 0.018,1 ± 0.044,1.01 ± 0.03,0.998 ± 0.051,0.989 ± 0.017
RPGR (UniProt Q92834),1.06 ± 0.046,0.991 ± 0.074,1.07 ± 0.087,1.04 ± 0.16,0.974 ± 0.056,1.03 ± 0.085,1.03 ± 0.048,0.975 ± 0.095
UniProt Q92610 and related entries,0.985 ± 0.046,1.133 ± 0.011,1.192 ± 0.01,1.34 ± 0.041,1.23 ± 0.015,1.33 ± 0.015,1.34 ± 0.21,1.29 ± 0.11
L3MBTL2 (UniProt Q969R5),0.99 ± 0.17,1.08 ± 0.031,0.98 ± 0.21,1.06 ± 0.15,1.08 ± 0.12,1.05 ± 0.12,1.04 ± 0.098,1.06 ± 0.2
UniProt Q92636 and related entries,1.09 ± 0.085,1.09 ± 0.1,0.972 ± 0.12,1.03 ± 0.11,0.951 ± 0.096,0.949 ± 0.062,0.912 ± 0.059,0.998 ± 0.12
COG3 (UniProt Q96JB2),1.03 ± 0.052,1.07 ± 0.04,1.036 ± 0.0053,1.04 ± 0.07,1.08 ± 0.088,1.06 ± 0.075,1.06 ± 0.057,1.05 ± 0.056
RTF1 (UniProt Q92541),0.98 ± 0.054,0.975 ± 0.062,0.943 ± 0.062,0.916 ± 0.085,0.915 ± 0.08,0.947 ± 0.081,0.949 ± 0.057,0.93 ± 0.084
UniProt Q96II8 and related entries,0.997 ± 0.053,1.04 ± 0.025,1.05 ± 0.016,1.08 ± 0.068,1.06 ± 0.091,1.1 ± 0.071,1.11 ± 0.022,1.07 ± 0.047
UniProt Q96DI7 and related entries,1.1 ± 0.14,1.12 ± 0.14,1.18 ± 0.15,1.24 ± 0.15,1.42 ± 0.26,1.48 ± 0.26,1.65 ± 0.38,1.65 ± 0.39
ZC3HAV1L (UniProt Q96H79),0.955 ± 0.022,0.981 ± 0.025,0.954 ± 0.023,0.938 ± 0.042,0.907 ± 0.044,0.914 ± 0.021,0.897 ± 0.027,0.929 ± 0.059
UniProt Q96K17,0.827 ± 0.043,0.819 ± 0.059,0.986 ± 0.026,0.969 ± 0.049,0.963 ± 0.036,0.983 ± 0.041,0.932 ± 0.1,1.06 ± 0.045
UniProt Q96CW5 and related entries,1.06 ± 0.092,1.18 ± 0.24,1.26 ± 0.39,1.49 ± 0.43,1.58 ± 0.5,1.49 ± 0.45,1.42 ± 0.42,1.33 ± 0.4
JARID2 (UniProt Q92833),0.971 ± 0.078,1.07 ± 0.11,1.09 ± 0.088,1.08 ± 0.087,1.05 ± 0.04,1.05 ± 0.088,1.18 ± 0.04,1.15 ± 0.026
SYAP1 (UniProt Q96A49),0.9486 ± 0.0035,0.92 ± 0.042,1.02 ± 0.035,0.977 ± 0.015,0.938 ± 0.077,0.968 ± 0.055,1.02 ± 0.059,1.01 ± 0.04
UniProt Q96E11 and related entries,0.902 ± 0.075,0.8646 ± 0.0015,0.995 ± 0.11,1.01 ± 0.042,0.913 ± 0.066,0.961 ± 0.045,0.891 ± 0.12,1.04 ± 0.18
UniProt Q8WY54 and related entries,0.968 ± 0.28,0.963 ± 0.12,0.963 ± 0.24,1.08 ± 0.29,0.956 ± 0.28,0.908 ± 0.25,0.869 ± 0.32,0.981 ± 0.29
PTCD3 (UniProt Q96EY7),1.06 ± 0.036,1.16 ± 0.15,1.18 ± 0.18,1.26 ± 0.21,1.28 ± 0.27,1.2 ± 0.26,1.18 ± 0.23,1.12 ± 0.22

# For convenience, some entries already given.
Target,NP40-soluble protein abundance (concentration: 0.1mM),NP40-soluble protein abundance (concentration: 0.5mM),NP40-soluble protein abundance (concentration: 1mM),NP40-soluble protein abundance (concentration: 2mM),NP40-soluble protein abundance (concentration: 4mM),NP40-soluble protein abundance (concentration: 6mM),NP40-soluble protein abundance (concentration: 8mM),NP40-soluble protein abundance (concentration: 10mM)
PGM2 (UniProt Q96G03),0.997 ± 0.017,1 ± 0.029,0.915 ± 0.025,0.913 ± 0.041,0.893 ± 0.055,0.877 ± 0.027,0.868 ± 0.043,0.86 ± 0.074
UniProt Q96D53 and related entries,0.865 ± 0.041,1.02 ± 0.03,0.983 ± 0.051,0.982 ± 0.022,0.965 ± 0.14,1.02 ± 0.14,0.854 ± 0.052,0.871 ± 0.019
